# From PubChem BioAssay AID1794844 (National Center for Advancing Translational Sciences (NCATS), 2023)
# Protein sequences, listed by entry. Tags and fused reporters are not part of them. Lines headed by an entry give the natural chain unless they say otherwise; changes in a name come on top.
# UniProt C7C422: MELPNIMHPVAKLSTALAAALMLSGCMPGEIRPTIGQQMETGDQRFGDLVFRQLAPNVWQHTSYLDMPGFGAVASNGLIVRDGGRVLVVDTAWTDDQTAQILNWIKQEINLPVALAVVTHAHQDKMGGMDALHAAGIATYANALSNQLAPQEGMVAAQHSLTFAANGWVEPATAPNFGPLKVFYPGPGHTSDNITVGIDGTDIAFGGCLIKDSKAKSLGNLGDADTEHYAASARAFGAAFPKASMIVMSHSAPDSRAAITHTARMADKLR
# The campaign covered roughly 2,800 compounds. Fewer than 10 were called active. Inconclusive results (about 7%) are left out. Calls follow the shape of the dose curve; as a rule, active = well fitted inhibition curve with a large enough effect; inconclusive = small, poorly fitted or top-dose-only effect; inactive = no such curve, though single readings can be large or run the other way. This is one part of the list.
# Biological target: Metallo-beta-lactamase type 2 (Klebsiella pneumoniae) (UniProt C7C422)
# Assay: qHTS to identify inhibitors of the New Delhi Metallo-beta-lactamase (NDM): Nitrocefin screen against the machine-based learning selections. As to activity, negative = inhibition: % of control where 0% means no effect.
# Conditions: NDM-1 enzyme, nitrocefin hydrolysis, absorbance 485 nm; activity, negative = inhibition: at the top concentration
# Summary of the method: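 NDM-1 (2 nM final) in 50 mM HEPES pH 7.0, 1 uM Zn2SO4, 0.01% Tween20 was preincubated with compounds for >30 min. Nitrocefin (16.7 uM final) was read at 485 nm after 15 min, and meropenem (50 uM final) at 300 nm after 30 min.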
# Potency is read from the fitted curve at half-maximal effect.
Compound,"activity, negative = inhibition",Potency
Cc1noc([C@@H]2CNC[C@H]2CO)n1,inactive: 0.709%,
CC(=O)N[C@@H]1Cc2ccccc2[C@H]1n1ccnc1-c1cc2n(n1)CCNC2,inactive: -4.6%,
O=C(NCc1ccc(F)cc1)c1cnc2n[nH]c(-c3ccccc3)c2n1,inactive: -3.23% [at 57.5 µM],
Cc1ccc(S(=O)(=O)N[C@H]2CO[C@H]3[C@@H]2OC[C@@H]3Nc2nccc(C(C)(C)C)n2)cc1,inactive: 0.29% [at 57.5 µM],
Cc1ccccc1Oc1ncccc1CNCc1cccc(O)c1,inactive: 0.866%,
CCCc1nnc([C@H]2CCN(Cc3ccc(C)o3)C2)o1,inactive: 22.7% [at 76.7 µM],
CC(C)NC(=O)N[C@H]1C[C@@H](Cc2cc(-c3ccccc3)on2)C1(C)C,inactive: 2.2% [at 57.5 µM],
O=C(c1ccc(OC(F)F)cc1)N1CCCC(O)(CN2CCCC2)C1 (configuration not stated),inactive: -3.33%,
Cc1nnc([C@@H]2CC(F)(F)CN2C(=O)c2ccc3ncccc3c2)o1,inactive: -3.64%,
C=CCN(C)C(=O)[C@@H](C)C1CC[C@@]2(C)Cc3sc(CSc4ccccc4)nc3[C@@H](C)[C@@H]2[C@H]1O (some centres not stated),inactive: -5.99%,
Cc1ccc(OC2(C(=O)N[C@H]3CCc4ccccc43)CCNCC2)cc1,inactive: 1.14%,
NC(=O)c1cccc(-c2ccc3c(n2)CN(Cc2nc4ccccc4s2)C(=O)CO3)c1,inactive: 3.32% [at 57.5 µM],
CC1(COc2ccccc2)COc2ccc(C(=O)NCCc3cnc[nH]3)cc2N1 (configuration not stated),inactive: -6.78% [at 57.5 µM],
COc1ccc(CN2C[C@@H](CO)[C@H](C3CCN(C(C)=O)CC3)C2)cc1C,inactive: -4.27%,
N#Cc1cccc(CN2Cc3[nH]cnc3C[C@H]2c2nc(-c3ccc(OC(F)(F)F)cc3)no2)c1,inactive: -9.01%,
CCNC(=O)Cc1c[nH]c2ncc(-c3ccccc3C)cc12,inactive: -6.6% [at 57.5 µM],
Cc1nc(CC(=O)N2CC[C@@H](NC(=O)c3cnccn3)[C@H](O)C2)cs1,inactive: -6.1%,
Cc1ccccc1C1CCCN1Cc1ncccc1C(=O)O (configuration not stated),,active: 13.4 µM
COc1ccc(C(=O)N2CCC(=O)N(Cc3ccc(F)cc3)C(C(C)C)C2)o1 (configuration not stated),inactive: -2.36%,
COc1cc(NC(=O)Cn2nc3c(cc2=O)CCCCC3)cc(OC)c1OC,inactive: -5.13%,
Cc1cccc(O[C@H]2COCCN(Cc3ccccn3)C2)n1,inactive: -0.933% [at 57.5 µM],
O[C@H]1CC[C@@H](Cc2cc(COc3ccccc3)on2)O[C@@H]1CNC1CCOCC1,inactive: 5.65% [at 57.5 µM],
CC(C)(O)c1cc(CC2(NCc3cnc4ccccc4c3)COC2)no1,inactive: 0.81% [at 57.5 µM],
CC1(C(=O)Nc2ccccc2)COCc2cnc(Nc3ccccc3)nc21 (configuration not stated),inactive: 4.32% [at 57.5 µM],

# An excerpt of these results, tab-delimited:
Compound	activity, negative = inhibition	Potency
CCCc1nnc([C@H]2CCN(Cc3ccc(C)o3)C2)o1	inactive: 22.7% [at 76.7 µM]	
Cc1cccc(O[C@H]2COCCN(Cc3ccccn3)C2)n1	inactive: -0.933% [at 57.5 µM]	

# The listing continues.

Compound,"activity, negative = inhibition",Potency
CC(C)Oc1ccc2c(NC(=O)c3ncc(F)cc3F)nn(CC(F)(F)F)c2c1,inactive: 10.8%,
CN1C[C@@H](NC(=O)c2ccc(C(C)(C)C)cc2)C[C@H]1c1nc(-c2ccncc2)no1,inactive: 1.53% [at 57.5 µM],
C[C@]1(CO)[C@H]2Cc3sc(NC(=O)C4CCCCC4)nc3[C@@H](CC(=O)N3CCOCC3)[C@]2(C)CC[C@H]1O,inactive: -1.71%,
COCCNc1ncccc1-c1noc([C@@H]2CCCN2CC(C)(C)C)n1,inactive: 2.4% [at 57.5 µM],
O=C(O)c1ccc(C2CCCN(C(=O)c3cccc4cccnc34)C2)cc1 (configuration not stated),inactive: -0.824%,
c1ccc(Nc2cc3c(cn2)CN(Cc2ccsc2)CCN3)cc1,inactive: 2.07% [at 57.5 µM],
O=C(Cc1ccccc1C(F)(F)F)N1CCC2(CC1)[C@H](O)C[C@@H]2O,inactive: -5.52%,
c1ccc(-c2cc3c(cn2)CN(Cc2c[nH]c4ccccc24)CCN3)cc1,inactive: -0.4% [at 57.5 µM],
C[C@@H](NS(=O)(=O)c1ccc(Cl)cc1)c1onc(-c2cccnc2)c1C(=O)O,inactive: 9.86% [at 57.5 µM],
CSCC(=O)N1CC[C@H](NC(=O)Nc2cccc(SC)c2)[C@H]1C(=O)N[C@@H](Cc1cccs1)C(N)=O,inactive: -0.281%,
CCc1nc2c(c(-c3ccc(O)cc3)n1)CN(Cc1ccccc1OC)CC2,inactive: 5.69%,
O=C(O)Cn1ccc2cc(OCCc3cccc(-c4ccccc4)c3)cnc21,inactive: -6.39% [at 57.5 µM],
COc1ccc(C(=O)NC[C@H]2O[C@@H](CC(=O)N3CCN(c4ccccc4OC)CC3)[C@H](O)[C@@H]2O)cc1,inactive: 1.54%,
COc1cc(F)cc(-c2cnc3[nH]cc(CC(=O)NCc4cccnc4)c3c2)c1,inactive: -3.73% [at 57.5 µM],
COCC(=O)NC[C@H]1OC[C@@H](NC2CCC2)[C@@H]1O,inactive: -0.0925% [at 76.7 µM],
CCOC(=O)C[C@@H]1C[C@@H](C(C)C)[C@H](CNC(=O)c2ccc(F)cc2)C=C1C,inactive: -0.664% [at 57.5 µM],
Cc1cccc2c1nc1n2[C@@H](CNCc2ccccc2)COC1,inactive: 1.33% [at 57.5 µM],
CC(C)N1C(=O)CO[C@H](c2ccc(NC(=O)c3ccccc3)cc2)[C@H]1CO,inactive: -4.04% [at 57.5 µM],
COc1ccc(C(=O)N[C@H](C)c2onc(-c3ccc(F)cc3)c2C(=O)O)cc1,inactive: -4.49% [at 57.5 µM],
Cc1cc(Cn2cc3c4c(cccc42)[C@H](CC(C)C)N[C@H](C(=O)N2CCN(C)CC2)C3)no1,inactive: -2.8%,
O=C(Nc1ccccc1)c1cnc2n1CCN(Cc1cccc(O)c1)CC2,inactive: -2.02% [at 57.5 µM],
O=C(NC1CCCN(c2cc(-c3ccc(F)cc3)[nH]n2)C1)c1cccc(Cl)c1 (configuration not stated),inactive: 5.89%,
O=C(NCc1nncn1C1CCCCC1)C1NCCc2[nH]cnc21 (configuration not stated),inactive: -7.48%,
